# Values of other authors, collected in patent publication US20250387404A1, “FORMULATIONS AND METHODS FOR TREATING EPIDERMOLYSIS BULLOSA SIMPLEX AND RELATED CONDITIONS” (RUTGERS, THE STATE UNIVERSITY OF NEW JERSEY, priority 2022, published 2025).
# For at least one compound, name, drawing or mass did not settle the structure.
# Tested on: keratin 14 mutant aggregation
# Conditions: cultured cells; cited from earlier work
smiles,measurement,value
CN(C)C/C=C/C(=O)Nc1cc2c(Nc3ccc(F)c(Cl)c3)ncnc2cc1O[C@H]1CCOC1 [afatinib],epidermal keratin 14 mutant aggregation,corrects
